Test results: PubChem BioAssay AID1508600 (Functional Genomics Laboratory (NCATS/FGL), 2020)
Out of some 53,000 sequences screened, about 3,700 (7%) were called active.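 The calls were made as follows: active = gene knockdowns whose robust z-score for IL-1 alpha signal is at least 2 or at most -2, so actives lie on both sides; inactive = the rest.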 Some of the results follow.

test: Components of the Cytosolic LPS Sensing Pathway: Gene Identification via Genome-wide siRNA Screen; details: RAW264.7 macrophages, IL-1a HTRF, actives lie on both sides, screened at 100 nM (by protocol), cells primed 5 h with Pam3CSK4 first;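 also: robust z of the log signal after scaling to non-targeting control siRNA wells of the plate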
Method in brief: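 RAW264.7; siRNA 100 nM final, RNAiMAX, 48h 37 degrees C; Pam3CSK4 5 h; LipidA + TransIT-TKO 24 h; IL-1a HTRF; CellTiter-Glo viability; robust z vs negative-control median.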

| Sequence | z-score |
| --- | --- |
| GCUCAGAGAACCUUAUAAGTT against Cyp4f15 | inactive: -0.346 |
| GGAGGACUAGUUGUGACUUTT against Aldh1a1 | inactive: -0.384 |
| GGUCAUAGCUGGAUUCCUUTT against Olfr1453 | inactive: -1.47 |
| GCACCUUCCAUCGGAAUGCTT against Tyw5 | inactive: -0.269 |
| GGAGUUGCAUCACUUGCUCTT against BC016579 | inactive: 0.441 |
| GACUGAACAGAUCUACUCUTT against Klra7 | inactive: -0.413 |
| GGAAAUGAAGCCAUGUUAATT against Arhgef6 | inactive: -0.55 |
| GCAUCGUCUGUGAAAUAUGTT against Map3k7 | inactive: 0.214 |
| GGAAAUCAUCUAUUCGGACTT against Klrc1 | active: 2.62 |
| GGAUAUAAAGUGGCUCUGGTT against Ica1l | inactive: -0.635 |
| CCGUAUAAGAAGCUUUGUUTT against Dennd4a | inactive: 1.17 |
| GGAACAAGAGAUUGAGCAUTT against Ccdc50 | inactive: 0.855 |
| GGAUUCUCACAAGUAAUUCTT against Ifi203 | inactive: 0.272 |
| GGCCCUUUUAAAUAACUACTT against 1110004F10Rik | inactive: 1.1 |
| GGAGAAGGAUCUGAACGAGTT against Nog | inactive: -1.24 |
| GGGAGACUUGUCAUGCACATT against Slc45a2 | inactive: 0.728 |
| GGAUCACCAAAAAUAGAUATT against Rsrp1 | inactive: -0.446 |
| CCAAUUCCUCUCAAUGUCATT against Gpatch11 | inactive: -1.78 |
| GGAUUUGUCAAACAACACATT against Ostm1 | inactive: -0.633 |
| GGUUUGGUUUUCAUUGUUATT against Nhlrc2 | inactive: -0.157 |
| CCGAUGACAAUCGGCCCUUTT against Gja8 | inactive: 0.74 |
| GGCAAUUUUUCAAGGCUUATT against D130007C19Rik | inactive: 0.628 |

| Sequence | z-score |
| --- | --- |
| GGCUGGAUGGCAUCUUUCUTT against Ttc22 | inactive: -0.28 |
| CCCAGGGUACCUCACAUCUTT against Nrp1 | inactive: -0.595 |
| GGACUAAUCCCAUUUUCUUTT against Zfp422 | inactive: -0.292 |
| GGGUCCUACAGAAGGAACUTT against Mea1 | inactive: -0.208 |
| GGAUCUUGAUAGACUGAUGTT against Rhox5 | inactive: 0.362 |
| GGCCUAGGGAAAGCUAUGGTT against Nat8f3 | active: -2.57 |
| GGUCUACCAUGACACACGUTT against Prrg2 | inactive: 0.519 |
| GGAAUUCCUUCACAUCUGGTT against Tc2n | inactive: 0.4 |
| GGAGAUCGUUGUCCAACUCTT against Trpc2 | inactive: 0.0108 |
| GGAACUCACUCGACAGAAGTT against Ciao2a | inactive: 0.882 |
| GGGACAGGACAGUUAGAUGTT against Msc | inactive: -0.301 |
| GGGCCUAGUCAAAAUGUUGTT against Fbxo7 | inactive: -0.196 |
| GGAGAAGAAGAACAGGACATT against Rnf186 | active: 2.35 |
| GAUUUCUUUGUGUCAUUGATT against Vmn1r35 | inactive: 0.495 |
| GCGGAGAGAAAGAGCUGAGTT against C230071H18Rik | inactive: 1.07 |
| CCAUCCUUCCGAAAGACGATT against Lcn10 | inactive: 0.465 |
| GCCGGUUGUAGAAAGGAGUTT against Frs2 | inactive: 0.354 |
| GGAGAUAUGACCAUCUCCUTT against Olfr798 | inactive: 1.47 |
| GGCUAUCACCUCCAACACCTT against Fkbp8 | inactive: -1.04 |
| CGGUCUGUUCCUAAUAAAUTT against Faim2 | inactive: -1.78 |
| GGGAGAUCAUGAUAGCAGCTT against Cox5b | inactive: -0.828 |
| CGGGAAGCAUAUUAUCUAUTT against Zfp770 | inactive: -0.25 |

| Sequence | z-score |
| --- | --- |
| GGCUAGAAAACCUCUAUCUTT against Lrrc18 | active: -2.11 |
| GGACUGAGAGGGAUGGUAATT against A530016L24Rik | inactive: 0.293 |
| GGGCAACAAGGAGUACUCATT against Prss45 | inactive: -1.88 |
| GGGCCAAAAGCUUAUUAAUTT against Arhgap20 | inactive: 0.542 |
| GGCCUGGUUCUGCAUAAGCTT against Gas2 | inactive: 0.458 |
| GGUUUAGGGCUUGCUAUAUTT against Mal | inactive: -0.244 |
| GCCUUAAGGUCUCCGUUCUTT against Gse1 | inactive: 0.467 |
| GUGGUCGGAAACACAAAGATT against Snrpc | inactive: -0.296 |
| GGGACAAGGACUUUAAAAATT against Scamp2 | inactive: 0.566 |
| GGAGUGAUAGAAUCAACAUTT against Manea | inactive: -0.369 |
| CCCAUUGAACUGCAUACUATT against Car3 | inactive: 0.296 |
| GGAGCUCUAUAGAAAUGCATT against Cul3 | inactive: -1.45 |
| GGCUUGGUGUUUUGAUUAGTT against Rogdi | inactive: 1.6 |
| GGAGCUCCUGAACAGGAUCTT against Gpr26 | active: 2.13 |
| GGCAUGCUAGGAGACAAGATT against Sh3rf3 | inactive: 0.148 |
| CCAUAUGUAGCUAUGGUUATT against Cul2 | inactive: 0.741 |
| GGCUGAAGAACCCUCCAAUTT against Plb1 | inactive: -0.8 |
| GGCAGCUGUUCAUCAUUACTT against Nudt16l1 | inactive: 1.97 |
| GGAUACCAUCCUAGGCCUGTT against Ephx3 | inactive: -0.603 |
| GGCUAUGUGCUGCACUUGCTT against Cyp27a1 | inactive: -0.282 |
| GCUUAACUAGUAUCCUAUGTT against Tas2r135 | inactive: -0.228 |
| GGGCUUCACUAAUGUCAAGTT against Gipc1 | inactive: -0.57 |

Part of the list above, as labelled records:
GGGCAACAAGGAGUACUCATT against Prss45
  z-score: inactive: -1.88
GGAGUGAUAGAAUCAACAUTT against Manea
  z-score: inactive: -0.369
GCUUAACUAGUAUCCUAUGTT against Tas2r135
  z-score: inactive: -0.228
GGGCUUCACUAAUGUCAAGTT against Gipc1
  z-score: inactive: -0.57

(continued)

| Sequence | z-score |
| --- | --- |
| GGUUCACCCAGGAAGUUCATT against Scn9a | inactive: -1.13 |
| GGGCCAAGGAAGAACUUCATT against Clec12a | inactive: -0.655 |
| GCAUUGAAAUCGUUAAAGCTT against Gorab | inactive: -0.324 |
| GGUACAAAGAUGGUUGCGATT against Alkbh2 | inactive: 0.451 |
| CCCAUUGUGGGCUUAUGGATT against 9430025C20Rik | inactive: -1.71 |
| GCAGCUUUUGUACUAUCUATT against Kifap3 | inactive: 0.92 |
| GGCCAUUGUAGAGCUGGUATT against Myh9 | inactive: 0.47 |
| CCUGUUUGCAUAGAUAGACTT against Pdgfc | inactive: -0.464 |
| GGAACAAGGAUGUAAAAUUTT against Olfr1090 | inactive: -0.751 |
| GGGCAUGAUAAGGAAGACATT against 1700029F12Rik | inactive: -1.32 |
| AACUGUCACCGUUCAAACCTT against Ociad2 | inactive: 0.632 |
| GCAGGUUGCACCAUGUAGATT against Slc25a42 | inactive: 0.701 |
| GCUGCUAAAGGUGACAUUCTT against Col4a4 | inactive: 0.129 |
| GCAAUGAGUAUUCAUGCAATT against Sec61a2 | inactive: -1.86 |
| GGGACUAUGACAAAACAGCTT against Atad2 | inactive: 0.0122 |
| GCUGUCUUAUUGUGAACCUTT against Olfr1173 | inactive: -1.52 |
| GGUCCUACCAUCUUAUAUGTT against Serpina5 | inactive: 1.63 |
| CGCGAGUUAUUUCUCAUAUTT against Pik3cb | inactive: -0.0248 |
| AUAACUACGUAUGUGAUGUTT against Olfr885 | inactive: -0.278 |
| GGUGAAGAAGAUGACAUUATT against Spock3 | inactive: -0.795 |
| GAAAUAGAUGAAGACCGGATT against Ppp1r1a | inactive: -0.0759 |
| CCUUUGUGUAUUCAAGGAGTT against Plekhg2 | inactive: -0.725 |

| Sequence | z-score |
| --- | --- |
| GGACAAUGUGAUGAAGAUUTT against Fgfr3 | inactive: -0.843 |
| CCCUCUACUAUGCGUUCUATT against Otop3 | inactive: 0.705 |
| CGGGACUGUAAAUUGACCUTT against Scube3 | inactive: 0.272 |
| GCUAUUCAAGUUUAUACGCTT against Tmed5 | inactive: 0.677 |
| GGGCUUUAAGGAAAAGUUUTT against Higd2a | inactive: 0.475 |
| GGGCUCUUUAGUACUAGAATT against Spn | inactive: -0.612 |
| GGAAGUUCAGAAAAAGGCATT against Slc46a3 | inactive: -0.0487 |
| GGUCAUUGCCACACAGAUCTT against Chac1 | inactive: 0.623 |
| GGAAGAGACGAAAUCCUUUTT against Sos1 | inactive: 0.605 |
| CCCUCACAUUCGUCUACCUTT against Mchr1 | inactive: 0.0952 |
| GGACUCUGGUUAGGAGUUGTT against Tbce | inactive: -1.24 |
| GUCUACCAGAUCCUUCCCUTT against H2-Q8 | active: -2.25 |
| GGUUCCAAGAGUGACAAUATT against Nnt | inactive: -1.05 |
| CCCGUAACCAUUUACUGGUTT against Tyro3 | inactive: 0.85 |
| GCCCAGCUCAAAUCUCCAUTT against Defb41 | inactive: 1.05 |
| GCUUCCAAGAUGGAACUACTT against Psmb10 | inactive: 0.657 |
| GGGCAAGGAUUCCCUGUAUTT against Rpl36al | inactive: -1.72 |
| GCUGAAACAAAGGGUAUAUTT against Map2k7 | inactive: -1.28 |
